# In PubChem BioAssay AID504834 (National Center for Advancing Translational Sciences (NCATS), 2011):
# The whole screen tested about 320,000 compounds, of which about 22,000 (6.9%) were called active. Inconclusive means that the source gave no clear call. Such entries were picked first, then a sample of the others. Calls come from the whole dose curve; as a rule, active = well fitted inhibition curve with a large enough effect; inconclusive = small, poorly fitted or top-dose-only effect, or another doubt; inactive = no such curve, though single readings can be large or run the other way. Potencies beside an inconclusive call are fits to weak or partial responses and may not hold up.
# Assay: Primary qHTS for delayed death inhibitors of the malarial parasite plastid, 96 hour incubation
# Conditions: P. falciparum luciferase reporter growth; series mostly up to 28.7 µM
# How it was run: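 P. falciparum expressing integrated firefly luciferase, in erythrocytes at 2% hematocrit, 0.05% parasitemia, incubated with compounds 96 h at 37 C, 5% CO2. Growth inhibition read as loss of luminescence; two-generation exposure targets delayed-death apicoplast inhibitors.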
# % is set by controls: 0 for no effect and ±100 for the full control effect; potency is the fitted concentration of half-maximal effect.
SMILES,Potency,"activity change, negative = inhibition"
Cn1c(COc2ccccc2Br)nc2ccccc21,"inconclusive: 18.5 µM [inhibitor, single point]",
CC(C)N1CCc2c(sc(NC(=O)c3ccco3)c2C(N)=O)C1,"inconclusive: 0.415 µM [inhibitor, full curve, poor fit]",
O=C(c1ccco1)N1CCCC(c2nc3c(nnn3Cc3c(Cl)cccc3Cl)c(=O)[nH]2)C1 (stereo not given),inactive,
COc1cc(C)c(-c2[nH]ncc2-c2csc(C)n2)c(O)c1,"inconclusive: 14.7 µM [inhibitor, partial curve, poor fit]",
N#CC1=C(N)OC2=C(C(=O)CCC2)C1c1cc2c(cc1Cl)OCO2 (stereo not given),inactive,
O=C(CCn1c(=O)oc2ccccc21)N1CCCCCC1,inactive,
CC(=O)NNc1ncnc2c1cnn2-c1ccccc1,"inconclusive: 18.5 µM [inhibitor, single point]",
CCN1C(=O)c2ccccc2S(=O)(=O)c2ccc(C(=O)NC(C)C)cc21,"inconclusive: 7.38 µM [inhibitor, partial curve]",
OCC[C@H]1C[C@H](O)[C@@H](O)[C@@]2(OCc3ccccc32)O1,inactive,
CN(C)CCCNC(=O)/C(=C\c1ccc(-c2ccc(Br)cc2)o1)NC(=O)c1ccccc1,"inconclusive: 13.1 µM [inhibitor, partial curve, poor fit]",
CN(C)C(CNC(=O)c1ccc(S(=O)(=O)Nc2cccc(C(F)(F)F)c2)cc1)c1ccco1 (stereo not given),inactive,
NC(=O)c1ccc(-n2nnnc2Oc2ccccc2C(=O)N2CCOCC2)cc1,"inconclusive: 3.7 µM [inhibitor, partial curve]",
COCCn1c(SCC(=O)Nc2cccc(C)c2)nnc1C(C)C,active: 0.165 µM,
Cc1ccc(O)c(C=Nc2ccc3[nH]ncc3c2)c1,"inconclusive: 18.5 µM [inhibitor, single point]",
Cc1ccccc1NC(=O)c1cc(-c2ccccc2)n(CCCN2CCOCC2)c1C,"inconclusive: 11.7 µM [inhibitor, partial curve, poor fit]",
O=C(COC(=O)CCS(=O)(=O)c1ccc(Cl)cc1)NCCc1ccccc1,inactive,
CCC(O)(C#CCN1CCCCC1)CC,"inconclusive: 10.4 µM [inhibitor, single point]",
COc1ccc(CC2(CO)CCN(Cc3ccncc3)CC2)cc1,"inconclusive: 11.7 µM [inhibitor, single point]",
O=C(Nc1cccc(-c2ccc(N3CCOCC3)nn2)c1)c1ccc(Cl)cc1,inactive,
COc1ccc(/C=N/NC(=O)CCc2ccccc2)cc1O,"inconclusive: 18.5 µM [inhibitor, single point]",
N/C(Cc1ccc(Cl)cc1)=N\OC(=O)c1ccccc1,active: 10.4 µM,
C#CCOCCOCCOCCNc1nc(N2CCOCC2)nc(N2CCN(C(=O)CCCCCCCCCCNC(=O)[C@@H](CCSC)n3cc(CCO)nn3)CC2)n1,"inconclusive: 0.522 µM [inhibitor, full curve]",
CCN(CC)c1ccc(C(=O)N/N=C/c2ccccc2OC(F)F)cc1,"inconclusive: 11.7 µM [inhibitor, single point]",
Cc1ccccc1NS(=O)(=O)c1ccc2[nH]cc(C(=O)NCCc3ccccc3)c(=O)c2c1,"inconclusive: 5.86 µM [inhibitor, partial curve]",

SMILES,Potency,"activity change, negative = inhibition"
CCN(c1ccccc1)S(=O)(=O)c1ccc(OC)c(NC(=O)C2CC2)c1,inactive,
Cc1nn(-c2ccccc2)c(C)c1C(=O)Nc1nnc(-c2ccco2)o1,"inconclusive: 11.7 µM [inhibitor, single point]",
O=C(O)CSc1cc(C(=O)c2cc(F)ccc2O)cn2c(=O)c3c(-c4ccccc4)csc3nc12,"inconclusive: 13.1 µM [inhibitor, single point]",
COc1cc2c(cc1OC)CN(CC(=O)Nc1ccc(Cl)cc1Cl)CC2,inactive,
COCCN1C(=O)/C(=C2/C(=O)N(CC(=O)Nc3ccccc3Cl)c3ccccc32)SC1=S,"inconclusive: 3.29 µM [inhibitor, single point]",
COC(=O)CCC(=O)N1CCOCCOCCOCC1,"inconclusive: 20.8 µM [inhibitor, single point]",
Cc1ccc(S(=O)(=O)N2CCOCC2)cc1C(=O)Nc1ccc(N2CCCCCC2)cc1,"inconclusive: 10.4 µM [inhibitor, single point]",
CCN(CC)C(=O)C1CCCN(c2ccc([N+](=O)[O-])cc2/C=N/NC(=O)c2ccc([N+](=O)[O-])cc2)C1 (stereo not given),"inconclusive: 0.415 µM [inhibitor, partial curve, poor fit]",
COC(=O)c1ccccc1NC(=S)NC(=O)c1ccccc1,inactive,
CCc1cc(=O)oc2cc3oc(C)c(C)c3cc12,"inconclusive: 0.165 µM [inhibitor, full curve, poor fit]",
CCc1nc2ccccc2c(C(=O)OCC(=O)N(CCOC)c2c(N)n(Cc3ccccc3)c(=O)[nH]c2=O)c1C,"inconclusive: 5.22 µM [inhibitor, partial curve]",
O=C(Nc1nc2ccc(F)cc2s1)c1cccc(S(=O)(=O)N2CCc3ccccc32)c1,"inconclusive: 14.7 µM [inhibitor, single point]",
CCOC(=O)c1cn(Cc2ccc(Br)cc2)nn1,inactive,
O=C(CCNC(=O)c1ccc(Cl)cc1)Nc1c(F)c(F)cc(F)c1F,inactive,
COc1cc(OC)cc(C(=O)Nc2ccc3nc4n(c(=O)c3c2)CCCC4)c1,inactive,
CCCCc1nnc(NC(=O)c2ccc(OCc3c(C)noc3C)cc2)s1,"inconclusive: 14.7 µM [inhibitor, single point]",
COc1cc(NC(=O)c2ccccc2F)ccc1NC(=O)c1cc2ccccc2o1,inactive,
CC(C)c1c(C(=O)N/N=C/c2ccccc2C(=O)O)nnn1-c1nonc1N,inactive,
CC1CCCCC1NC1CCN(C)CC1 (stereo not given),active: 9.28 µM,
COc1cc(OC)c2c(-c3ccccc3)cc(=O)oc2c1C(CCN1CCCC1)c1ccc2c(c1)OCO2 (stereo not given),active: 8.28 µM,
Cc1cc(C)nc(CCNC(=O)c2cc(COc3ccc(F)cc3Cl)on2)n1,"inconclusive: 18.5 µM [inhibitor, single point]",
O=C(CCNS(=O)(=O)c1ccc(Br)cc1)NCc1ccc(F)cc1,inactive,
O=C(O)c1cc(S(=O)(=O)N2CCN(C(=O)c3ccco3)CC2)c(Cl)cc1Cl,"inconclusive: 10.4 µM [inhibitor, partial curve, poor fit]",
O=C(NCCc1ccccc1)c1cccc(N2CCCC2=O)c1,"inconclusive: 10.4 µM [inhibitor, single point]",

SMILES,Potency,"activity change, negative = inhibition"
CCN(CC)S(=O)(=O)c1ccc(Cl)c(NC(=O)c2ccc(C#N)cc2)c1,inactive,
CS(=O)Cc1cc(Sc2ccccc2)nc(-c2ccncc2)n1 (stereo not given),"inconclusive: 10.4 µM [inhibitor, single point]",
COc1ccccc1CC(=O)NNC(=O)c1ccco1,"inconclusive: 18.5 µM [inhibitor, partial curve, poor fit]",
Cc1nc2ccccc2c(=O)n1NC(=O)c1ccco1,inactive,
CCOC(=O)C1(Cc2ccc(OC)cc2)CCN(C(=O)CCn2ccc(C)n2)CC1,"inconclusive: 11.7 µM [inhibitor, single point]",
CCc1ccc(NC(=O)Cn2cccc2)cc1,"inconclusive: 1.65 µM [inhibitor, partial curve, poor fit]",
Cc1nc(SCc2ccccc2)nc2c1CCC2,inactive,
CC(Sc1nncn1C)C(=O)Nc1cc(C(F)(F)F)ccc1N1CCOCC1 (stereo not given),"inconclusive: 0.0233 µM [inhibitor, full curve, poor fit]",
COC(=O)c1c(C(=O)OC)c2ccncn2c1Cl,,inactive: 0.918% [at 5.75 µM]
COc1ccccc1CNC(=O)CN(C)S(=O)(=O)c1ccc(F)cc1,inactive,
COc1ccc(N(CC(C)C)S(=O)(=O)c2nnc(NC(=O)c3ccco3)s2)cc1,"inconclusive: 9.28 µM [inhibitor, single point]",
Cc1noc(C)c1COc1ccccc1C(=O)N(C)Cc1ccc(C(C)(C)C)cc1,active: 14.7 µM,
CN(CC(=O)Nc1ccc(N2CCOCC2)cc1)CC(=O)Nc1ccc(C(F)(F)F)cc1,"inconclusive: 9.28 µM [inhibitor, partial curve, poor fit]",
CC1(c2ccc3ccccc3c2)NC(=O)N(CC(=O)NCc2cccs2)C1=O (stereo not given),"inconclusive: 0.0029 µM [inhibitor, full curve, poor fit]",
O=C(CCc1nc2ccccc2s1)NC1CCOC1=O (stereo not given),inactive,
O=C(CN1C(=O)c2ccc([N+](=O)[O-])cc2C1=O)NCCC1=CCCCC1,inactive,
O=C1NCCNC(=O)c2ccccc2OCCOc2ccccc21,"inconclusive: 18.5 µM [inhibitor, single point]",
Cc1cccc(Cn2c(N3CCCCC3C)nc3c2c(=O)[nH]c(=O)n3C)c1 (stereo not given),"inconclusive: 7.38 µM [inhibitor, partial curve]",
Cc1cc(N2CCN(C(=O)c3ccco3)CC2)n2nc(-c3cccc(F)c3)cc2n1,"inconclusive: 10.4 µM [inhibitor, partial curve, poor fit]",
COc1ccccc1NS(=O)(=O)c1cc(NC(=O)c2ccncc2)ccc1N1CCCC1,"inconclusive: 13.1 µM [inhibitor, single point]",
O=C1CN(C(=O)CSc2nnnn2C2CC2)c2ccccc2N1,"inconclusive: 10.4 µM [inhibitor, single point]",
O=C(NC1CCCCCC1)c1nc2ncccn2n1,"inconclusive: 1.04 µM [inhibitor, full curve, poor fit]",

# 4 entries picked at random from the list so far:
SMILES,Potency,"activity change, negative = inhibition"
COc1ccccc1NS(=O)(=O)c1cc(NC(=O)c2ccncc2)ccc1N1CCCC1,"inconclusive: 13.1 µM [inhibitor, single point]",
COc1ccccc1CC(=O)NNC(=O)c1ccco1,"inconclusive: 18.5 µM [inhibitor, partial curve, poor fit]",
CN(CC(=O)Nc1ccc(N2CCOCC2)cc1)CC(=O)Nc1ccc(C(F)(F)F)cc1,"inconclusive: 9.28 µM [inhibitor, partial curve, poor fit]",
CCc1ccc(NC(=O)Cn2cccc2)cc1,"inconclusive: 1.65 µM [inhibitor, partial curve, poor fit]",
